# In the supplement of paper PMC12067093, “Discovery and optimisation of a covalent ligand for TRIM25 and its application to targeted protein ubiquitination” (Chemical Science, 2025):
# By UniProt entry, the sequences of proteins in these tests, tags left out. Where a name states a change or a piece, a line headed by the entry shows the natural chain unless it says otherwise.
# UniProt P17480: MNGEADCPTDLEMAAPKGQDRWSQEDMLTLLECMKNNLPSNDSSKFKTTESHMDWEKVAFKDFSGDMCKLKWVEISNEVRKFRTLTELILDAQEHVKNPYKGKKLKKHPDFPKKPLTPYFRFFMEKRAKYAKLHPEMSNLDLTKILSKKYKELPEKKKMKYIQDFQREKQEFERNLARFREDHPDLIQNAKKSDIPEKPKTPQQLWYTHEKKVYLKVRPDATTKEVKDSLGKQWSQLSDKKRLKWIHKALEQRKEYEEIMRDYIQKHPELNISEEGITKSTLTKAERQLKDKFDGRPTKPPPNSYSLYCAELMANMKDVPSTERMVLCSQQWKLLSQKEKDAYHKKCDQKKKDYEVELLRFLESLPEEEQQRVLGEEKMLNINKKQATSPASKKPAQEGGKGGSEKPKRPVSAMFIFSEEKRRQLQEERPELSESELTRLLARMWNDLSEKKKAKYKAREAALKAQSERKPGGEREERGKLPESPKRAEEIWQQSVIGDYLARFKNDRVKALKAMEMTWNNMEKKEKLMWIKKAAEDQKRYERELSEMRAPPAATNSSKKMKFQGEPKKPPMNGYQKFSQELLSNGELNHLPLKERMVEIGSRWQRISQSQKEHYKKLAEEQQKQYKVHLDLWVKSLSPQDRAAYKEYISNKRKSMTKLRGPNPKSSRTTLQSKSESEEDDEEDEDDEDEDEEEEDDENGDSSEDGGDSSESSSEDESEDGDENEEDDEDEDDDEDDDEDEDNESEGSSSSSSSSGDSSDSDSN
# UniProt Q13107: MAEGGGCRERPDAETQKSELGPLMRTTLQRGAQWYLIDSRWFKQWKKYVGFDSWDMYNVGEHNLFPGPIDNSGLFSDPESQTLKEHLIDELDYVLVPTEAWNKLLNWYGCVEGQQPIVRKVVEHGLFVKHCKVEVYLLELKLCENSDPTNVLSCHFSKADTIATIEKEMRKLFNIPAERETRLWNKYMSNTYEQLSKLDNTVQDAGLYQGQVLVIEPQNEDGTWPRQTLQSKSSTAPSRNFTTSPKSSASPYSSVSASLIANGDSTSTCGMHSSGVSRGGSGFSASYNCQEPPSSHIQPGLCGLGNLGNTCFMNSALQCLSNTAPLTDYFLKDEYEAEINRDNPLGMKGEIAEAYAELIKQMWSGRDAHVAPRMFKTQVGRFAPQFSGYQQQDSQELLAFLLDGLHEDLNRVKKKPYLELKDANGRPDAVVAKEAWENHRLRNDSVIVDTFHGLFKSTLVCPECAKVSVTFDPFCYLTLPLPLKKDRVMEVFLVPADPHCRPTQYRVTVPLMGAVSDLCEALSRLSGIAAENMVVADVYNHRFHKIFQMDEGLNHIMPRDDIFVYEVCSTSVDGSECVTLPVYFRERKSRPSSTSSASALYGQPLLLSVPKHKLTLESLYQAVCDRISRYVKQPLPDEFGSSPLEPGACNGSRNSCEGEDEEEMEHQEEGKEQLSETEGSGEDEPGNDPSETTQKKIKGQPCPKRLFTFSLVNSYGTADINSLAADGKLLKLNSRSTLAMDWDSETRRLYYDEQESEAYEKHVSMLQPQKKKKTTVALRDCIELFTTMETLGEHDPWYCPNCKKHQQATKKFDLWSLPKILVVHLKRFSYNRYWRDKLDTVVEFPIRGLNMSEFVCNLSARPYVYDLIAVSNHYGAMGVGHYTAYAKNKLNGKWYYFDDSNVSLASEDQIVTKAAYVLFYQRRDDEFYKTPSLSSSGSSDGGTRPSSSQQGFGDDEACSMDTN
# UniProt O95071: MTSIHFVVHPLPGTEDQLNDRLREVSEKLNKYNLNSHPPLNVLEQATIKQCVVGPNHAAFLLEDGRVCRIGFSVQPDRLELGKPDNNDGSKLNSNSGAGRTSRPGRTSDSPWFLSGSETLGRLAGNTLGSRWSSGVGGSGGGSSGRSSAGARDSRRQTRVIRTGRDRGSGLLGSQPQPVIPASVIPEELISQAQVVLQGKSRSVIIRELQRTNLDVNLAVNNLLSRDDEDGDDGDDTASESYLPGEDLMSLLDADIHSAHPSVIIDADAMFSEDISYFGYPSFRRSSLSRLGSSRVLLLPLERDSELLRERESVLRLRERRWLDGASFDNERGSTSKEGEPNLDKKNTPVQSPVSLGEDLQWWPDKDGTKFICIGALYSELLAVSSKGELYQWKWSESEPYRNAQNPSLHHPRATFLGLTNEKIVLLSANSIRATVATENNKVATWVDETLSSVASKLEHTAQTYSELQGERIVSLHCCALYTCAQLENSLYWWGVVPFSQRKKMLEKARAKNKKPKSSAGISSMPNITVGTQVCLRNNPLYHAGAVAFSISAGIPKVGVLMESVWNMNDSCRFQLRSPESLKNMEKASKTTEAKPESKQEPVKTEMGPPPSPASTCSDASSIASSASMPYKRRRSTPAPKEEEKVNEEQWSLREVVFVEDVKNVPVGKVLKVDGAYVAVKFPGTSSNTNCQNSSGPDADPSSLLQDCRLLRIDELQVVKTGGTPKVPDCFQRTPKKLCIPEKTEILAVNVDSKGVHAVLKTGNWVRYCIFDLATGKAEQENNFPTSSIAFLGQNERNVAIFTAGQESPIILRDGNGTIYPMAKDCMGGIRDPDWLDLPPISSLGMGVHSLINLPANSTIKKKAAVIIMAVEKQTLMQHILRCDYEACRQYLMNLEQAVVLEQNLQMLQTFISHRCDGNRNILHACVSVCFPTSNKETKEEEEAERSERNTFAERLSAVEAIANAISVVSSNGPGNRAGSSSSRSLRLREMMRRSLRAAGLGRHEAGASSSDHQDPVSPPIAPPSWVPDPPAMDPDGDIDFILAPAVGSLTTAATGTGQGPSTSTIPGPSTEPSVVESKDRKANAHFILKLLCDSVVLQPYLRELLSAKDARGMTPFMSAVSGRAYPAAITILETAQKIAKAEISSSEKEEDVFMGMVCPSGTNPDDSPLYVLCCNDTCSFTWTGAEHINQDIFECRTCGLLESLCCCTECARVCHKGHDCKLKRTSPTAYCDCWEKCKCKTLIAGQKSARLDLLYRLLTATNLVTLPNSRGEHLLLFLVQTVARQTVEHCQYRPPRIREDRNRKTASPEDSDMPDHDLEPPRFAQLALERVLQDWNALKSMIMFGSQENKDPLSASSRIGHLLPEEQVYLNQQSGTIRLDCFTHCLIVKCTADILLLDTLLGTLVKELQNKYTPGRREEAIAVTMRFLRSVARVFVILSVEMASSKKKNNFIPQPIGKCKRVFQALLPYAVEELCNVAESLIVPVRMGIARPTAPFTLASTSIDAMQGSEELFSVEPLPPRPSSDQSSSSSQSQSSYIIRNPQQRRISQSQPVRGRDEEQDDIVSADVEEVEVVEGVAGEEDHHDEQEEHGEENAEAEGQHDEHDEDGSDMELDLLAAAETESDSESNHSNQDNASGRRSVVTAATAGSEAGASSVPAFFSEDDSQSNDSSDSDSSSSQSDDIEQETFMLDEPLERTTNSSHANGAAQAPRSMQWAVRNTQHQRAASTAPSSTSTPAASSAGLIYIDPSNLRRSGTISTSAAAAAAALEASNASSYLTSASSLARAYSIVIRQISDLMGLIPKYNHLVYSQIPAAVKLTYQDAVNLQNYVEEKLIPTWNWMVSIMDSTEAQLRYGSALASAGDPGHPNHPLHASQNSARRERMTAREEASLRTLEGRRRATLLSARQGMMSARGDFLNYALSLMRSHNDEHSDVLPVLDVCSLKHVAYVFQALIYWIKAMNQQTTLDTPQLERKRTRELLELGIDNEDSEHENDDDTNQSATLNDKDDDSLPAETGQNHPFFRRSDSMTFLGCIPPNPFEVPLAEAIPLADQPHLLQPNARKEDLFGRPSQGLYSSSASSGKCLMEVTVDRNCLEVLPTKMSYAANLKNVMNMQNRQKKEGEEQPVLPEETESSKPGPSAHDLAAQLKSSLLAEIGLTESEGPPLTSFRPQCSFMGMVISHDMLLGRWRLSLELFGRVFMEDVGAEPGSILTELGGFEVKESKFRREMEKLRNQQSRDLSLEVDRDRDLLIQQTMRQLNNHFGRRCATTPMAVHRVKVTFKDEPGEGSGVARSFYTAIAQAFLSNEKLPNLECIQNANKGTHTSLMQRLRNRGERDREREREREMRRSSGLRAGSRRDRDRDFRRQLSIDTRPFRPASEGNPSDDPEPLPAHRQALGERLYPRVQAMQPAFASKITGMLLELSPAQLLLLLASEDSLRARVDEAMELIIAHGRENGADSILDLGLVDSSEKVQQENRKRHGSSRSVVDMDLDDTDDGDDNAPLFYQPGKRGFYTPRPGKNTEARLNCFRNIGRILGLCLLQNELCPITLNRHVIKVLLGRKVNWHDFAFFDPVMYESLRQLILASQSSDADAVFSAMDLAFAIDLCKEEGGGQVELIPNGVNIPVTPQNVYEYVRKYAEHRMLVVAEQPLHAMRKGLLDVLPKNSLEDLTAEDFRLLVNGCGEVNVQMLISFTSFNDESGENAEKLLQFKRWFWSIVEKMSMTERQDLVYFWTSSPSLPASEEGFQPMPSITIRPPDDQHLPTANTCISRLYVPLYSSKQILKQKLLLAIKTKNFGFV
# UniProt Q70J99: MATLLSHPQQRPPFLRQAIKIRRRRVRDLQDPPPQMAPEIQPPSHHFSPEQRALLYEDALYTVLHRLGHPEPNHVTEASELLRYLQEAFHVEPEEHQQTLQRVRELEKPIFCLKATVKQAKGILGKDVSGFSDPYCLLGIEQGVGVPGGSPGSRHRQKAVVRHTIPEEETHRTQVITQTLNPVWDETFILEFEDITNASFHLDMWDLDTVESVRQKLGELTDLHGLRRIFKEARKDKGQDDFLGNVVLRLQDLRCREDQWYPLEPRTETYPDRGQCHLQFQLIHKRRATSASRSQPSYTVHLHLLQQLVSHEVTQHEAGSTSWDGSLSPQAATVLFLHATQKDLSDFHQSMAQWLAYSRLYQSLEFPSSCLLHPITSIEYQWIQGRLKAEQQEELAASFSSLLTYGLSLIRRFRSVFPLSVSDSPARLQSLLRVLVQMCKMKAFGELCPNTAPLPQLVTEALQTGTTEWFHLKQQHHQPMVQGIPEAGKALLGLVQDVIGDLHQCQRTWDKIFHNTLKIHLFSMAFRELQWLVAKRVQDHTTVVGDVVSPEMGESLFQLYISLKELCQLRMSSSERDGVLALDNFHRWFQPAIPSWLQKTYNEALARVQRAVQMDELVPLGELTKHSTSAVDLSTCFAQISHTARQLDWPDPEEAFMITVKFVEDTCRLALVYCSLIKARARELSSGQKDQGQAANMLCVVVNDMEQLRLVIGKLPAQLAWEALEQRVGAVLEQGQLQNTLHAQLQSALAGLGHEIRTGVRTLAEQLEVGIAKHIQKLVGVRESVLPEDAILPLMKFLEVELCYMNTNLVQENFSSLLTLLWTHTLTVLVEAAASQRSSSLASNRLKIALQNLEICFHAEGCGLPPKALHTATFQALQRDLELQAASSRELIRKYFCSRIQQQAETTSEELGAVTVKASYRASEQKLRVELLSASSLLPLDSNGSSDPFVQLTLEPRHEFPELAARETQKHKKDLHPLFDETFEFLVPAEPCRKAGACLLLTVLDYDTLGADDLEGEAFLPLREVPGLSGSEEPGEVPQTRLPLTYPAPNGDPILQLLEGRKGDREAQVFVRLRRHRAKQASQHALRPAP
# UniProt Q96T88: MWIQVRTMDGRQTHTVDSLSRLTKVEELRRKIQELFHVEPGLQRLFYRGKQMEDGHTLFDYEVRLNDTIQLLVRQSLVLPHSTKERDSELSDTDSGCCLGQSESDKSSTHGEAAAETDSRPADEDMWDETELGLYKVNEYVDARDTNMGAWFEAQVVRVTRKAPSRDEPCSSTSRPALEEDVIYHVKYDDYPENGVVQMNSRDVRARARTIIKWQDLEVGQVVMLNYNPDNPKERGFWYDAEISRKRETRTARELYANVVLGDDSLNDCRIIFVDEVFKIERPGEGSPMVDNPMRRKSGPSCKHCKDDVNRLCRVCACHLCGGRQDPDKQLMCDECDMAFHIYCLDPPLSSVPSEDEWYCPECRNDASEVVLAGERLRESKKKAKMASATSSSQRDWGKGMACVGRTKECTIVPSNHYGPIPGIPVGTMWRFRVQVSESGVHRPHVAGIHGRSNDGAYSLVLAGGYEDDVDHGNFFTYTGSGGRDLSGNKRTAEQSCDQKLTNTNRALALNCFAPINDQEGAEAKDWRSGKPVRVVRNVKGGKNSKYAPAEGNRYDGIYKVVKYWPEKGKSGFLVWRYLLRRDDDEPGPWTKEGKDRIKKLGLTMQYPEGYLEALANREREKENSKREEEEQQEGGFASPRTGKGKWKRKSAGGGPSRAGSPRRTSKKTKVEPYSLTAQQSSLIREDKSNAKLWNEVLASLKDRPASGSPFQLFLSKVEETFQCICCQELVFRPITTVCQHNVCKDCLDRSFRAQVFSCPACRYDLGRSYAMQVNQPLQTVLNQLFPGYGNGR
# Some of the results follow.
# Compound: CC1Cc2ccccc2N1C(=O)C1CCCN(C1)C(=O)CCl (mixture of isomers) [TRIM25 ligand 11 (diastereomer mixture)]
# Assay: probe-labelled cysteine peptide fold change vs DMSO (competition) (log2 fold change); higher = less target engagement (more negative = stronger competition)
# Conditions: THP-1, incubation time: 4 h
# 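Note: competitive chemoproteomic profiling in live THP-1 cells with an iodoacetamide desthiobiotin (IA-DTB) probe, comparing probe-labelled peptide intensities in compound-treated cells against DMSO-treated controls.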
target,measurement,setting,value
UBTF_P17480_33_GQDRWSQEDMLTLLECMK (UniProt P17480),probe-labelled cysteine peptide fold change,10 µM,-0.328
same,probe-labelled cysteine peptide fold change,50 µM,-0.395
UIMC1_Q96RL1_691_SFVSISEATDCLVDFKK (UniProt Q96RL1),probe-labelled cysteine peptide fold change,10 µM,-0.0909
same,probe-labelled cysteine peptide fold change,50 µM,-0.341
URB1_O60287_316_ELVHNFLMDLCCSLK (UniProt O60287),probe-labelled cysteine peptide fold change,10 µM,0.00673
same,probe-labelled cysteine peptide fold change,50 µM,-0.0724
ULK3_Q6PHR2_186_GSPLYMAPEMVCQR (UniProt Q6PHR2),probe-labelled cysteine peptide fold change,10 µM,-0.0148
same,probe-labelled cysteine peptide fold change,50 µM,-0.194
USP25_Q9UHP3_551_HITEEELSVLESCLHR (UniProt Q9UHP3),probe-labelled cysteine peptide fold change,10 µM,0.0068
same,probe-labelled cysteine peptide fold change,50 µM,0.00453
UCHL5_Q9Y5K5_88_QVINNACATQAIVSVLLNCTHQDVHLGETLSEFK (UniProt Q9Y5K5),probe-labelled cysteine peptide fold change,10 µM,0.0243
same,probe-labelled cysteine peptide fold change,50 µM,-0.0045
USP4_Q13107_519_VTVPLMGAVSDLCEALSR (UniProt Q13107),probe-labelled cysteine peptide fold change,10 µM,-0.116
same,probe-labelled cysteine peptide fold change,50 µM,-0.0154
UGGT1_Q9NYU2_1386_DFNLDGAPYGYTPFCDSRR (UniProt Q9NYU2),probe-labelled cysteine peptide fold change,10 µM,-0.267
same,probe-labelled cysteine peptide fold change,50 µM,0.0181
UBR5_O95071_2267_CATTPMAVHR (UniProt O95071),probe-labelled cysteine peptide fold change,10 µM,-0.0202
same,probe-labelled cysteine peptide fold change,50 µM,-0.174
UNC13D_Q70J99_505_ALLGLVQDVIGDLHQCQR (UniProt Q70J99),probe-labelled cysteine peptide fold change,10 µM,0.505
same,probe-labelled cysteine peptide fold change,50 µM,0.384
USP11_P51784_894_DGHYTTFACNK (UniProt P51784),probe-labelled cysteine peptide fold change,10 µM,0.00141
same,probe-labelled cysteine peptide fold change,50 µM,-0.34
USP6_P35125_584_CYGDLVQELWSGTQK (UniProt P35125),probe-labelled cysteine peptide fold change,10 µM,0.0718
same,probe-labelled cysteine peptide fold change,50 µM,0.0421
UGGT1_Q9NYU2_159_TCESDTLEALLLTASERPK (UniProt Q9NYU2),probe-labelled cysteine peptide fold change,10 µM,0.138
same,probe-labelled cysteine peptide fold change,50 µM,0.107
USP15_Q9Y4E8_634_ISTETEETEGSLHCCK (UniProt Q9Y4E8),probe-labelled cysteine peptide fold change,10 µM,-0.0446
same,probe-labelled cysteine peptide fold change,50 µM,-0.0793
USP48_Q86UV5_80_GNPNCLVGIGEHIWLGEIDENSFHNIDDPNCER (UniProt Q86UV5),probe-labelled cysteine peptide fold change,10 µM,-0.0286
same,probe-labelled cysteine peptide fold change,50 µM,-0.224
UHRF1_Q96T88_744_VEETFQCICCQELVFRPITTVCQHNVCK (UniProt Q96T88),probe-labelled cysteine peptide fold change,10 µM,-0.0365
same,probe-labelled cysteine peptide fold change,50 µM,0.124
UHRF1_Q96T88_170_KAPSRDEPCSSTSR (UniProt Q96T88),probe-labelled cysteine peptide fold change,10 µM,0.0682
same,probe-labelled cysteine peptide fold change,50 µM,-0.0741

# Given with bars between the fields: part of the list above
target | measurement | setting | value
UCHL5_Q9Y5K5_88_QVINNACATQAIVSVLLNCTHQDVHLGETLSEFK (UniProt Q9Y5K5) | probe-labelled cysteine peptide fold change | 10 µM | 0.0243
same | probe-labelled cysteine peptide fold change | 50 µM | -0.0045
USP4_Q13107_519_VTVPLMGAVSDLCEALSR (UniProt Q13107) | probe-labelled cysteine peptide fold change | 10 µM | -0.116
same | probe-labelled cysteine peptide fold change | 50 µM | -0.0154
UGGT1_Q9NYU2_1386_DFNLDGAPYGYTPFCDSRR (UniProt Q9NYU2) | probe-labelled cysteine peptide fold change | 10 µM | -0.267
same | probe-labelled cysteine peptide fold change | 50 µM | 0.0181
UBR5_O95071_2267_CATTPMAVHR (UniProt O95071) | probe-labelled cysteine peptide fold change | 10 µM | -0.0202
same | probe-labelled cysteine peptide fold change | 50 µM | -0.174
UNC13D_Q70J99_505_ALLGLVQDVIGDLHQCQR (UniProt Q70J99) | probe-labelled cysteine peptide fold change | 10 µM | 0.505
same | probe-labelled cysteine peptide fold change | 50 µM | 0.384
